Measurements taken from US20230183310A1, “Polypeptide Compounds and Use Thereof in the Prevention or Treatment of Diabetes or Diabetic Complications” (Shenzhen Turier Biotech Co., Ltd., priority 2020, published 2023).
Some entries share one result that the patent states for a list of compounds.

System: C57BL/6J mice
Assay: Oral glucose tolerance (OGTT), repeated glucose loads followed to 24 h after one s.c. dose
Type: in vivo
Settings: 100 μg/kg subcutaneously; for AUC in the first OGTT curve period: 0-120 min, compared to control PBS; for AUC in the next three OGTT curve periods: 4-22 h
Description: Eight-week-old male C57BL/6J mice (Model Animal Research Center, Nanjing University) were randomly grouped according to similar blood glucose (assessed by blood samples obtained from the tail tip), with six mice in each group. […] The initial blood samples (fasted blood glucose levels) were obtained after about 4 h. Subsequently, an oral dose of glucose (2 g/kg) was administered and the animals were placed back in their holding cages (t=0). […] The oral dose of glucose was then repeated at 8 h of administration, 12 h of administration and […], and blood glucose changes were detected and followed until 24 hours. The data were processed using the software GraphPadPrism to make a line graph of blood glucose changes, and the area under the curve was calculated to obtain an AUC graph, and the results are shown in FIG. 1.

| Substance | AUC in the first OGTT curve period | AUC in the next three OGTT curve periods |
| --- | --- | --- |
| His-(D-Ser)-Gln-Gly-Thr-Phe-Thr-Ser-Asp-Tyr-Ser-Lys(PEG2-PEG2-CO(CH2)16CO2H)-Lys-Leu-Asp-Aib-Arg-Arg-Ala-Gln-Asp-Phe-Val-Gln-Trp-Leu-Met-Asn-Thr-Gly-Gly-Pro-Ser-Ser-Gly-Ala-Pro-Pro-Pro-Ser-NH2 [Compound 19] | significantly lower AUC (p<0.05) | AUC started to elevate |
| His-(D-Ser)-Gln-Gly-Thr-Phe-Thr-Ser-Asp-Tyr-Ser-Lys-Tyr-Leu-Asp-Lys(PEG2-PEG2-γGlu-CO(CH2)14CH3)-Arg-Arg-Ala-Gln-Asp-Phe-Val-Gln-Trp-Leu-Leu-Asn-Thr-Gly-Gly-Pro-Ser-Ser-Gly-Ala-Pro-Pro-Pro-Ser-NH2 [Compound 18] | significantly lower AUC (p<0.05) | AUC started to elevate |
| His-(D-Ser)-Gln-Gly-Thr-Phe-Thr-Ser-Asp-Tyr-Ser-Lys-Tyr-Leu-Asp-Lys(PEG2-PEG2-γGlu-CO(CH2)14CH3)-Arg-Arg-Ala-Gln-Asp-Phe-Val-Gln-Trp-Leu-Met-Asn-Thr-Gly-Gly-Pro-Ser-Ser-Gly-Ala-Pro-Pro-Pro-Ser-NH2 [Compound 17] | significantly lower AUC (p<0.05) | AUC started to elevate |
| His-Ser-Gln-Gly-Thr-Phe-Thr-Ser-Asp-Lys*-Ser-Lys-Tyr-Leu-Asp-Glu-Arg-Ala-Ala-Gln-Asp-Phe-Val-Gln-Trp-Leu-Met-Asn-Thr-Gly-Pro-Ser-Ser-Gly-Ala-Pro-Pro-Pro-Ser-OH (HSQGTFTSDKSKYLDERAAQDFVQWLMNTGPSSGAPPPS; fatty acid on lysine) [Compound 25, K* lysine covalently linked to a fatty acid] | significantly lower AUC (p<0.05) | AUC started to elevate |
| His-Ser-Gln-Gly-Thr-Phe-Thr-Ser-Asp-Lys*-Ser-Lys-Tyr-Leu-Asp-Glu-Gln-Ala-Ala-Gln-Asp-Phe-Val-Gln-Trp-Leu-Met-Asn-Gly-Gly-Pro-Ser-Ser-Gly-Ala-Pro-Pro-Pro-Ser-NH2 (HSQGTFTSDKSKYLDEQAAQDFVQWLMNGGPSSGAPPPS; fatty acid on lysine; C-terminal amide) [Compound 24, K* lysine covalently linked to a fatty acid] | significantly lower AUC (p<0.05) | AUC started to elevate |
| His-Ser-Gln-Gly-Thr-Phe-Thr-Ser-Asp-Lys*-Ser-Lys-Tyr-Leu-Asp-Glu-Glu-Ala-Ala-Gln-Asp-Phe-Val-Gln-Trp-Leu-Met-Asn-Gly-Gly-Pro-Ser-Ser-Gly-Ala-Pro-Pro-Pro-Ser-NH2 (HSQGTFTSDKSKYLDEEAAQDFVQWLMNGGPSSGAPPPS; fatty acid on lysine; C-terminal amide) [Compound 23, K* lysine covalently linked to a fatty acid] | significantly lower AUC (p<0.05) | AUC started to elevate |
| His-Ser-Gln-Gly-Thr-Phe-Thr-Ser-Asp-Lys*-Ser-Lys-Tyr-Leu-Asp-Ser-Arg-Ala-Ala-Gln-Asp-Phe-Val-Gln-Trp-Leu-Met-Asn-Thr-Gly-Pro-Ser-Ser-Gly-Ala-Pro-Pro-Pro-Ser-OH (HSQGTFTSDKSKYLDSRAAQDFVQWLMNTGPSSGAPPPS) [Compound 26] | significantly lower AUC (p<0.05) | AUC started to elevate |
| His-Ser-Gln-Gly-Thr-Phe-Thr-Ser-Asp-Lys*-Ser-Lys-Tyr-Leu-Asp-Ser-Gln-Ala-Ala-Gln-Asp-Phe-Val-Gln-Trp-Leu-Met-Asn-Gly-Gly-Pro-Ser-Ser-Gly-Ala-Pro-Pro-Pro-Ser-NH2 (HSQGTFTSDKSKYLDSQAAQDFVQWLMNGGPSSGAPPPS; fatty acid on lysine; C-terminal amide) [Compound 22, K* lysine covalently linked to a fatty acid] | significantly lower AUC (p<0.05) | AUC started to elevate |
| His-Xaa-Gln-Gly-Thr-Phe-Thr-Ser-Asp-Lys*-Ser-Lys-Tyr-Leu-Asp-Glu-Gln-Ala-Ala-Gln-Asp-Phe-Val-Gln-Trp-Leu-Leu-Asp-Gly-Pro-Ser-Ser-Gly-Ala-Pro-Pro-Pro-Ser-NH2 [Compound 21, X is aminoisobutyric acid, K* lysine covalently linked to a fatty acid] | significantly lower AUC (p<0.05) | AUC started to elevate |
